Laboratory results: PubChem BioAssay AID1259294 (Sanger Institute, 2017)
The whole screen tested 160 reagents; shown is an unselected part. Over the whole deposit, 43 (27%) got an active call. 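Calls mean synergy with any one drug, not lethality of knock-down alone; BYL719 1 µM, cetuximab 5 µg/ml, trametinib 10 nM barely cut viability.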 A number with no mark means an inactive call. Reagents against one gene are numbered here. Viability is capped at 1. Not stated in the record: the amount of reagent, the time to read-out.

Purpose: 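Knock-downs that boost anti-cancer drug killing in colorectal cancer cells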 (follow-up of hits)
Cell system: human CL40 colorectal cancer cells
Reagents: single siRNA against human genes
Challenge: anchor drug or DMSO vehicle added to knock-down cells: BYL719 1 µM, cetuximab 5 µg/ml, trametinib 10 nM
Measured: 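Cell viability after knock-down with vehicle or drug, each replicate set against non-targeting pool 2 and then averaged; synergy score weighs the observed combined effect against the expected one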
Scale: synergy score with trametinib and synergy score with BYL719 and synergy score with cetuximab: higher = stronger synergistic (synthetic lethal) killing; viability, knock-down alone: higher = more cells survive knock-down; viability, knock-down plus trametinib: higher = more cells survive combination
Active means: 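Called synergy with a drug when the synergy score is above 0.10 for at least one anchor drug, otherwise no synergy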
Calls: active = synergy with a drug; inactive = no synergy

| Gene | reagent no. | synergy score with trametinib | synergy score with BYL719 | synergy score with cetuximab | viability, knock-down alone (fraction of control) | viability, knock-down plus trametinib (fraction of control) |
| --- | --- | --- | --- | --- | --- | --- |
| SYK (spleen associated tyrosine kinase) | 1 | 0.0115 | -0.0391 | -0.176 | 0.329 | 0.138 |
| SYK (spleen associated tyrosine kinase) | 2 | 0.0404 | -0.312 | -0.0546 | 0.864 | 0.353 |
| SYK (spleen associated tyrosine kinase) | 3 | 0.121 (active) | 0.0686 | -0.0578 | 0.498 | 0.106 |
| SYK (spleen associated tyrosine kinase) | 4 | -0.0316 | -0.252 | -0.105 | 0.939 | 0.459 |
| HUNK (hormonally up-regulated Neu-associated kinase) | 1 | 0.00883 | -0.0126 | -0.072 | 0.683 | 0.302 |
| HUNK (hormonally up-regulated Neu-associated kinase) | 2 | 0.0508 | -0.062 | -0.0991 | 0.483 | 0.169 |
| HUNK (hormonally up-regulated Neu-associated kinase) | 3 | 0.128 (active) | -0.0309 | -0.17 | 0.928 | 0.295 |
| HUNK (hormonally up-regulated Neu-associated kinase) | 4 | 0.0834 | -0.106 | -0.152 | 0.566 | 0.175 |

The list goes on (2 carried over from the part before).
| Gene | reagent no. | synergy score with trametinib | synergy score with BYL719 | synergy score with cetuximab | viability, knock-down alone (fraction of control) | viability, knock-down plus trametinib (fraction of control) |
| --- | --- | --- | --- | --- | --- | --- |
| HUNK (hormonally up-regulated Neu-associated kinase) | 3 | 0.128 (active) | -0.0309 | -0.17 | 0.928 | 0.295 |
| HUNK (hormonally up-regulated Neu-associated kinase) | 4 | 0.0834 | -0.106 | -0.152 | 0.566 | 0.175 |
| CHD4 (chromodomain helicase DNA binding protein 4) | 1 | -0.0445 | -0.0878 | -0.139 | 0.667 | 0.348 |
| CHD4 (chromodomain helicase DNA binding protein 4) | 2 | -0.00923 | -0.297 | -0.135 | 0.462 | 0.219 |
| CHD4 (chromodomain helicase DNA binding protein 4) | 3 | -0.0213 | 0 | 0.0969 | 0.696 | 0.338 |
| CHD4 (chromodomain helicase DNA binding protein 4) | 4 | -0.00473 | -0.277 | 0.0236 | 0.847 | 0.39 |
| KCNH8 (potassium voltage-gated channel subfamily H member 8) | 1 | 0.0317 | -0.148 | -0.149 | 0.581 | 0.233 |
| KCNH8 (potassium voltage-gated channel subfamily H member 8) | 2 | 0.104 (active) | -0.151 | -0.299 | 0.778 | 0.25 |
| KCNH8 (potassium voltage-gated channel subfamily H member 8) | 3 | -0.12 | -0.306 | -0.106 | 1 | 0.575 |
| KCNH8 (potassium voltage-gated channel subfamily H member 8) | 4 | 0.0765 | -0.261 | -0.097 | 0.562 | 0.18 |
| SF3B1 (splicing factor 3b subunit 1) | 1 | -0.0447 | -0.0493 | -0.00185 | 0.152 | 0.114 |
| SF3B1 (splicing factor 3b subunit 1) | 2 | -0.0119 | -0.0224 | -0.00716 | 0.212 | 0.108 |
| SF3B1 (splicing factor 3b subunit 1) | 3 | 0.046 | 0.019 | -0.0133 | 0.305 | 0.093 |
| SF3B1 (splicing factor 3b subunit 1) | 4 | -0.0501 | -0.0565 | -0.0301 | 0.124 | 0.107 |
